Article PMC6361149

Protein sequences, listed by entry. Tags and fused reporters are not part of them. Lines headed by an entry give the natural chain unless they say otherwise; changes in a name come on top.
UniProt O15265: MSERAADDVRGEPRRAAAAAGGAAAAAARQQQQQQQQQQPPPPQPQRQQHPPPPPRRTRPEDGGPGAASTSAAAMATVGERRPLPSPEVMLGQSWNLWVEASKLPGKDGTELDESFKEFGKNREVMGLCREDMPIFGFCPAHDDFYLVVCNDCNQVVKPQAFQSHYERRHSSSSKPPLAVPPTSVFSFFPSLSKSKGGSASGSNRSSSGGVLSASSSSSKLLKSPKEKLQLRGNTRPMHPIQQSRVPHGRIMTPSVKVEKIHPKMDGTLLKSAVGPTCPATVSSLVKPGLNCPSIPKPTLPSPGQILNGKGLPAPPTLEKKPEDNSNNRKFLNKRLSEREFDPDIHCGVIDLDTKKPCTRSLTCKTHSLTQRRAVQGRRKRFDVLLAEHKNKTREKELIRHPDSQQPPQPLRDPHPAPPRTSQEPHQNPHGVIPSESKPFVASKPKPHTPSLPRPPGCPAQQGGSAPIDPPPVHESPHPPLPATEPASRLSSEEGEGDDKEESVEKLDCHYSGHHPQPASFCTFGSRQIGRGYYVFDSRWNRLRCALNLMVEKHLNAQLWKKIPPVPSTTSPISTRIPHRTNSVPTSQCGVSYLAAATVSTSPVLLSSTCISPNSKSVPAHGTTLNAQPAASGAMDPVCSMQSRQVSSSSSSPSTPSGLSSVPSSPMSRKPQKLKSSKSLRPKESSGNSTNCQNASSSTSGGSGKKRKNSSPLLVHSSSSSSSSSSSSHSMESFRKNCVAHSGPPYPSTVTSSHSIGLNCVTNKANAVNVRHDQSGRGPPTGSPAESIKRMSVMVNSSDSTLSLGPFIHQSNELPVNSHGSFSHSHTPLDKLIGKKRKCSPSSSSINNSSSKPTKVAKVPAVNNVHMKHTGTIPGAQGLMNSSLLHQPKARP
UniProt P61956: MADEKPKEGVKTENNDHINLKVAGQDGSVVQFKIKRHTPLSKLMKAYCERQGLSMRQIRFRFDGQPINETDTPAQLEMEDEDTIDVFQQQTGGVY

Molecular target: mutant ataxin-7 with 72 glutamines (ATXN7-72Q) (human) (UniProt O15265)
Experiment: proximity ligation; HeLa cells overexpressing ATXN7-72Q alone or with HA-SUMO2; mouse monoclonal anti-1C1 (ATXN7) and rabbit polyclonal anti-SUMO2/3; detects proteins closer than 40 nm; controls with one of the two antibodies gave no signal

**Q.** How did the binding turn out when HA-SUMO2 (from UniProt P61956 1-95) was run?
**A.** Its binding is “binds”.

No constants are given. Whether binding was seen depends on the method and setting. Binding seen in cells or lysates may run through a third protein. Binding calls can cover weak binding; strength is not graded here.
